# Assay results as given in PMC7532574.
# Chains of the proteins cited; added tags and fusions are not shown.
# UniProt Q15004: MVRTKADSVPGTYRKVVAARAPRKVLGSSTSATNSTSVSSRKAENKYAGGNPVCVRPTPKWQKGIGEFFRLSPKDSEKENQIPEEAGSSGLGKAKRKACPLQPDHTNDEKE
# UniProt O00762: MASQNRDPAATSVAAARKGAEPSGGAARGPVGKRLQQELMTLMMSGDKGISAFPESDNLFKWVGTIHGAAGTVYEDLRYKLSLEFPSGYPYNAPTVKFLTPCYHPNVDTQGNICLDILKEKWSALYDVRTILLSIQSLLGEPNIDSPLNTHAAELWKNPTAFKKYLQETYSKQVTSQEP
# Results are given in words; binding and its absence hold for the method and conditions named. Binding seen in cells or lysates may run through a third protein. Some binding calls cover weakened binding; strength is not graded here.
# Target: KIAA0101 protein containing the wt KEN box (HA-wt-KIAA0101) (human) (UniProt Q15004)
# Test: co-IP; lysates of SK-MES-1 cells transfected 48 h with HA-KIAA0101 (wt or mutant KEN box); precleared, precipitated with anti-HA antibody (2 ug/ml) and protein A or G agarose/Sepharose beads, 2 h at room temperature or overnight at 4 °C; washed with PBS; western blotting
substance,measurement,value
UbcH10 (from UniProt O00762 1-179) (enzyme),binding,binds
